# Laboratory results published in PubChem BioAssay (NCATS).
# Inconclusive results, whose numbers are uncertain, are shown with a selection of clear calls. Where the call is inconclusive, the potency comes from a doubtful curve fit. Calls of active or inactive are those of the source. Calls come from the whole dose curve; as a rule, active = well fitted inhibition curve with a large enough effect; inconclusive = small, poorly fitted or top-dose-only effect, or effect the other way; inactive = no such curve, though single readings can be large or run the other way.
# Experiment: qHTS Assay for Inhibitors of Fructose-1,6-bisphosphate Aldolase from Giardia Lamblia: Giardia lamblia growth inhibition (AID 2785); note: nearly all actives have a fitted effect of over 70% in size
# Conditions: Giardia lamblia trophozoite growth inhibition; activity change, negative = inhibition: at 57.5 µM (top of the series)
# In short: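 Whole-parasite growth test: Giardia WB trophozoites in TYI-S-33 (pH 7.0), 100 per well, incubated 48 h at 37C with compound. ATP content was read by ATPlite luminescence.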
# % is set by controls: 0 for no effect and ±100 for the full control effect; potency is the fitted concentration of half-maximal effect.
SMILES,"activity change, negative = inhibition",Potency
CN1CCc2c1nc1ccccc1c2NC(=O)CN1CCCC1,inactive: -4.31% [at 10.4 µM],–
C[C@H](NC(=O)c1ccccc1)C(=O)Nc1nc(-c2ccccn2)cs1,–,"inconclusive: 44.7 µM [inhibitor, single point]"
O=C(NC1CCCCCC1)c1ccc[nH]c1=S,inconclusive: 38.4% [activator],–
CCCn1nnc(NC(=S)NC(=O)c2cccs2)n1,–,"inconclusive: 7.08 µM [inhibitor, partial curve, poor fit]"
CN1C(=O)/C(=C2\SC(=S)N(NC(=O)c3cccnc3)C2=O)c2ccccc21,–,active: 11.2 µM
